Experimental findings from US20170340700A1 are described below.

One experiment concerns the target T1, FRA1 (UniProt P15407).
T1 sequence (looked up): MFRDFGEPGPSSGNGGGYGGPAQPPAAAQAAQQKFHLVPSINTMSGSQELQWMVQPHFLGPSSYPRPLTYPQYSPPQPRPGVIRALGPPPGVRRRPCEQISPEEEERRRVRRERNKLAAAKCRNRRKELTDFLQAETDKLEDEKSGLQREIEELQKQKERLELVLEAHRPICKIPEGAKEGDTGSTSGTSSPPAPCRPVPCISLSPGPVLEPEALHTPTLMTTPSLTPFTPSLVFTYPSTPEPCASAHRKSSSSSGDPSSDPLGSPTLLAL
The experiment is described as follows: coimmunoprecipitation with anti-cJUN antibody from MB231 nuclear extracts, Western blot for FRA1. (In general: In western blotting, separated proteins are transferred to a membrane and probed.)

The target of experiment [1] is T2, FBJ murine osteosarcoma viral oncogene homolog B (FOSB) (human), P53539.
T2 chain: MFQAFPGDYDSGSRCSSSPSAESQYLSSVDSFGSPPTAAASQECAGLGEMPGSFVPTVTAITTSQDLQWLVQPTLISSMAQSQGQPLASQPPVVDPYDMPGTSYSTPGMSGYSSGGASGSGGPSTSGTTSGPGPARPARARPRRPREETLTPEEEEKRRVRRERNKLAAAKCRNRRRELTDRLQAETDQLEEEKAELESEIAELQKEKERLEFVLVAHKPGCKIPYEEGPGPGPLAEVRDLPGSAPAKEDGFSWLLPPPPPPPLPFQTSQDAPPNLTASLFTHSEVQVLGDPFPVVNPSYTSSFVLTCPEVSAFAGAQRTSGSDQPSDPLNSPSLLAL
The experiment is described as follows: coimmunoprecipitation with anti-cJUN antibody from nuclear extracts of TP4-treated MB231 cells, Western blot for FOSB. The note with it: remark: other sources report otherwise.

Results are given in words; binding and its absence hold for the method and conditions named. In cells and extracts the contact can be indirect. Some results given as binding are weak or reduced against the parent protein; the word gives no strength.

Turning to c-JUN (from UniProt P05412 1-331), the binding entry with FRA1 is reported as “binds”.

B1: c-JUN, P05412 1-331 (protein, UniProt P05412 1-331, looked up)
chain: MTAKMETTFYDDALNASFLPSESGPYGYSNPKILKQSMTLNLADPVGSLKPHLRAKNSDLLTSPDVGLLKLASPELERLIIQSSNGHITTTPTPTQFLCPKNVTDEQEGFAEGFVRALAELHSQNTLPSVTSAAQPVNGAGMVAPAVASVAGGSGSGGFSASLHSEPPVYANLSNFNPGALSSGGGAPSYGAAGLAFPAQPQQQQQPPHHLPQQMPVQHPRLQALKEEPQTVPEMPGETPPLSPIDMESQERIKAERKRMRNRIAASKCRKRKLERIARLEEKVKTLKAQNSELASTANMLREQVAQLKQKVMNHVNSGCQLMLTQQLQTF
Turning to B1, the binding entry in experiment [1] was “binds”.
